# Reference: PubChem BioAssay AID2685 (National Center for Advancing Translational Sciences (NCATS), 2010)
# The other results are listed elsewhere or left out. Shown are side measurements of this screen, not its main read-out; they come without a call. Most of these compounds were active or inconclusive in the main read-out, so they are no random draw. The note in brackets gives the kind of curve behind each potency; many fits are weak.
# Experiment: qHTS Assay for Lipid Storage Modulators in Drosophila S3 Cells;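 for cell number change: cells counted by Cell Tracker Red CMTPX staining in the red channel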
# Settings: BODIPY lipid droplet fluorescence, 18-24 h; for cell number change: measured here: cell count max response, cells fed with added oleic acid
# Method in brief: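 Drosophila S3 cells loaded with oleic acid (400 uM, as added) and compounds at several concentrations; lipid droplets imaged by 488-nm laser-scanning cytometry, 500–530 nm intensity and object ratio to cell channel. Percent activity normalized to 20 uM Triacsin C.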
# [1] = measured here: cell number channel AC50, cells fed with added oleic acid
# [2] = measured here: lipid fluorescence (Fed channel) AC50, cells fed with added oleic acid
SMILES,cell number change [%],AC50 [1],AC50 [2]
Cc1ccc(C)c(NC(=O)Cn2nc(C(F)(F)F)cc2C2CC2)c1,18.1,"0.00517 µM [rising, full curve, poor fit]","0.366 µM [rising, full curve]"
CC1(C)Cc2c(sc3nn[nH]c(=O)c23)CO1,-14,–,–
O=C(NCC1CCCO1)C(c1ccccn1)N(Cc1ccccc1Cl)C(=O)CN1C(=O)c2ccccc2S1(=O)=O (stereo not given),1.2,–,–
CC(C)(C)C1CCc2onc(C(=O)Nc3ccc(F)cc3F)c2C1 (stereo not given),-22.4,–,–
CCOC(=O)c1cc(S(=O)(=O)N2CCCC2)cn1C,17.2,"6.51 µM [rising, single point]","16.4 µM [rising, single point]"
CSCCC(NC(=O)c1ccco1)C(=O)N1CCCCCCC1 (stereo not given),–,–,"0.146 µM [rising, full curve, poor fit]"
Cc1cccc(C(C)C)c1NC(=O)COC(=O)CCN1C(=O)C2CC=CCC2C1=O (stereo not given),-0.697,–,"0.0058 µM [falling, full curve, poor fit]"
O=C(NC(=S)Nc1ccc(S(=O)(=O)Nc2nccs2)cc1)c1cccnc1,–,–,"7.31 µM [falling, partial curve]"
Oc1ccc(Br)cc1-c1cc(-c2ccccc2)n[nH]1,-51,"29.1 µM [falling, single point]","29.1 µM [falling, single point]"
CCC1CCCCN1CCCNC(=O)c1cn(C)c2ccc(S(=O)(=O)N(C)C3CCCCC3)cc2c1=O (stereo not given),-9.48,–,"0.164 µM [falling, full curve, poor fit]"
COC(=O)c1ccc(CS(=O)(=O)c2ccc(C)cc2)cc1,-65,"14.6 µM [falling, partial curve, poor fit]",–
CCOc1ccc2nc(NS(=O)(=O)c3cccs3)sc2c1,16.7,–,"29.1 µM [rising, single point]"
CCOC(=O)c1cc(-c2ccccc2)n(CC(=O)Nc2cccc(OC)c2)c1C,2.04,–,"1.64 µM [falling, single point]"
COc1cccc(NC(=O)Nc2ccc(CC(=O)O)cc2)c1,-6.34,–,"3.66 µM [falling, single point]"
O=C(COc1ccc(S(=O)(=O)NC2CCCCC2)cc1)NCc1ccccn1,–,"6.51 µM [rising, single point]","6.51 µM [rising, single point]"
O=C(CCCOc1ccccc1)Nc1nnc(C2CCCO2)s1 (stereo not given),11,–,"29.1 µM [falling, single point]"
CC1CCc2nn(CC(=O)NCCC3=CCCCC3)cc2C1 (stereo not given),-44.1,"25.9 µM [falling, partial curve, poor fit]","7.31 µM [falling, full curve]"
CCCCOc1ccccc1C1NC(=O)NC(C)=C1C(=O)OCCOCC (stereo not given),–,"5.17 µM [falling, single point]","6.51 µM [falling, single point]"
CC(OC(=O)Cc1n[nH]c(=O)c2ccccc12)C(=O)Nc1ccc(S(N)(=O)=O)cc1 (stereo not given),-40,"0.326 µM [falling, full curve, poor fit]",–
Cc1ccc(/C=N/NC(=O)c2ccc(NC(=O)c3ccc(Cl)cc3)cc2)o1,1.71,–,"0.517 µM [rising, full curve]"

SMILES,cell number change [%],AC50 [1],AC50 [2]
O=C(CCNC(=O)c1ccco1)Nc1ccccc1OC(F)F,0.952,–,–
OC1(Cc2ccn[nH]2)CCCCC1,-49.9,"4.11 µM [falling, full curve]","0.0058 µM [falling, full curve, poor fit]"
CC(=O)Nc1ccccc1C(=O)C(=O)Nc1ccc(C(=O)N2CCOCC2)cc1,-22,–,–
COc1cccc2cc(C(C)N(CCCN3CCOCC3)C(=S)Nc3ccc(C)cc3)oc12 (stereo not given),-21.4,"0.0058 µM [falling, full curve, poor fit]",–
COc1cc(S(=O)(=O)Nc2ccccn2)ccc1F,-31.2,"7.31 µM [falling, partial curve, poor fit]","6.51 µM [falling, single point]"
Cc1cc(S(=O)(=O)N2CCOCC2)ccc1OCC(=O)Nc1ccc(F)c(Cl)c1,-1.9,–,–
Nc1nc2n(n1)C(c1ccccc1)CC(c1ccc(F)cc1)N2 (stereo not given),2.52,–,"0.259 µM [rising, full curve]"
CCOC(=O)N1CCN(C(=O)c2oc3ccc(S(=O)(=O)N4CCOCC4)cc3c2C)CC1,-7.82,–,–
CCOC(=O)C(C)N1C(=O)S/C(=C\c2ccc(-c3ccccc3C(=O)O)o2)C1=O (stereo not given),24.3,–,"14.6 µM [falling, partial curve, poor fit]"
COc1ccc(C(=O)NNC(=O)C(=O)Nc2ccc(C)cc2)cc1,15.7,–,"0.58 µM [falling, single point]"
NC(=O)CSc1ncc(-c2ccccc2)[nH]1,-7.07,–,"16.4 µM [rising, single point]"
COc1ccc(N=C2NC(=O)C(CO)(CO)S2)cc1,22.5,–,"29.1 µM [rising, single point]"
Cc1cccc(C)c1NC(=O)Cn1nc(-c2ccccc2)nc1-c1ccccc1,38,"0.0366 µM [rising, full curve, poor fit]","0.184 µM [rising, full curve, poor fit]"
CCCCN1CC(=O)N2[C@H](c3ccc(OC)cc3)[C@@H]3C(=O)N(CC)C(=O)[C@@H]3[C@]2(Cc2ccccc2)C1=O,12.9,–,"3.66 µM [falling, single point]"
FC(F)(F)Oc1ccc(NC(=S)NCCCN2CCOCC2)cc1,-14.2,"0.0291 µM [falling, full curve, poor fit]",–
CCOc1ccc(-c2nnc(NC(=O)Cc3ccc(OC)cc3)o2)cc1,34.6,"29.1 µM [rising, partial curve]",–
COc1ccccc1CCNC(=O)CNC(=O)c1ccc2ccccc2c1,0.901,–,"11.6 µM [falling, single point]"
CC(C)n1c(N2CCN(C(=O)Nc3ccc(Cl)cc3)CC2)nc2ccccc21,-50,"20.6 µM [falling, single point]",–
CCn1nccc1C(=O)Nc1ccc(S(=O)(=O)NC23CC4CC(CC(C4)C2)C3)cc1,-81.9,"18.4 µM [falling, partial curve]","18.4 µM [falling, partial curve]"
Cc1ccc(N(C(=O)C2CCCC2)C2C=CS(=O)(=O)C2)cc1C (stereo not given),–,"0.326 µM [falling, full curve, poor fit]",–

# Part of the list above, reformatted:
SMILES | cell number change [%] | AC50 [1] | AC50 [2]
Cc1cc(S(=O)(=O)N2CCOCC2)ccc1OCC(=O)Nc1ccc(F)c(Cl)c1 | -1.9 | – | –
Nc1nc2n(n1)C(c1ccccc1)CC(c1ccc(F)cc1)N2 (stereo not given) | 2.52 | – | 0.259 µM [rising, full curve]
CCOC(=O)N1CCN(C(=O)c2oc3ccc(S(=O)(=O)N4CCOCC4)cc3c2C)CC1 | -7.82 | – | –
CCOC(=O)C(C)N1C(=O)S/C(=C\c2ccc(-c3ccccc3C(=O)O)o2)C1=O (stereo not given) | 24.3 | – | 14.6 µM [falling, partial curve, poor fit]
COc1ccc(C(=O)NNC(=O)C(=O)Nc2ccc(C)cc2)cc1 | 15.7 | – | 0.58 µM [falling, single point]

# (listing goes on)

SMILES,cell number change [%],AC50 [1],AC50 [2]
CCCCc1c(CCC)c(=N)c2ccccc2n1C,-22.8,–,"18.4 µM [falling, partial curve, poor fit]"
COC(=O)[C@H](CC(C)C)NCc1cccc(CN[C@@H](CC(C)C)C(=O)OC)c1,18.9,–,"23.1 µM [falling, single point]"
CNC(=O)COC(=O)c1ccccc1C(=O)c1ccc(Cl)c([N+](=O)[O-])c1,–,"0.82 µM [rising, single point]",–
O=C(CSc1nn(-c2ccc(F)cc2)c(=S)s1)NC(=O)NCc1ccco1,–,"4.11 µM [rising, single point]","1.64 µM [rising, partial curve]"
CC(C)(C)N1CC(COc2ccccc2)OC1=O (stereo not given),-38.5,"3.66 µM [falling, full curve]","3.66 µM [falling, full curve]"
COC(=O)c1cc(OC)c(OC)cc1NC(=O)c1ccco1,-0.277,–,"1.84 µM [rising, partial curve]"
Cc1ccc(CSCCNC(=O)c2cccc([N+](=O)[O-])c2)cc1,12.8,–,–
Cc1cccc(NC(=S)NNC(=O)COc2ccc(Cl)cc2Cl)c1,-25.8,–,"16.4 µM [falling, single point]"
C=CCn1c(SCCN2CCCC2)nc2c([nH]c3ccccc32)c1=O,47.9,"18.4 µM [rising, partial curve, poor fit]","20.6 µM [rising, single point]"
Cc1ccc(S(=O)(=O)Oc2ccc3c(c2)O/C(=C\c2cccnc2)C3=O)cc1,60.2,"1.84 µM [rising, partial curve]","0.731 µM [rising, single point]"
COc1ccc(-c2cc(=O)oc3cc(OC(C)C(=O)O)ccc23)cc1 (stereo not given),-7.81,–,"0.0103 µM [falling, full curve, poor fit]"
O=C(Nc1cnn(Cc2ccc(Cl)cc2Cl)c1)c1noc2c1CCCC2,-25.6,–,"23.1 µM [falling, single point]"
Cc1ccc(C2(C)NC(=O)N(CC(=O)c3ccc(Cl)s3)C2=O)cc1 (stereo not given),6.74,–,"32.6 µM [falling, single point]"
CCn1c(SCC(=O)Nc2ccc3c(c2)c2ccccc2n3CC)nnc1-c1cnccn1,-3.78,–,"0.13 µM [rising, full curve, poor fit]"
Cc1cc(C)c(S(=O)(=O)c2ccccc2C)c(OCCO)n1,-19.4,"0.058 µM [rising, full curve, poor fit]",–
CCCNS(=O)(=O)c1ccc2c(c1)n(C)c(=O)n2C,16.3,–,"0.231 µM [rising, full curve, poor fit]"
COc1ccc(NC(=O)c2ccco2)cc1NC(=O)c1cc2ccccc2o1,-7.8,–,"29.1 µM [rising, single point]"
CC(=O)c1cccc(NC(=O)C2CCN(S(C)(=O)=O)CC2)c1,-18.4,–,"0.82 µM [falling, single point]"
